# Test results as given in PubChem BioAssay AID1347423 (Functional Genomics Laboratory (NCATS/FGL), 2020).
# The campaign covered roughly 52,000 sequences. About 210 (0.4%) were called active.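 The calls were made as follows: active = gene whose silencing raises cell survival under the drug, median off-target-corrected z-score across its silencing RNAs 2 or more; inactive = the rest.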 The list shows a part of the results.
# Test: Resistance to Poly (ADP-Ribose) Polymerase inhibitor: Gene Identification via Genome-wide siRNA Screen
# Details: mouse BRCA2 R2336H ES cells, olaparib, CellTiter-Glo viability; stronger effect = higher value
# Method in brief: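 Mouse BRCA2 R2336H ES cells were reverse-transfected with siRNA (20 nM final), treated at 48 h with 500 nM olaparib, and read by CellTiter-Glo after 72 h. Scores: MAD-based z per siRNA, median per gene, seed off-target correction.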
row,Sequence,z-score
1,GGGACACGUUUUCUGUGCATT against Lrrk1,inactive: -1.06
2,GGAUGAGGAAAACUUCCAGTT against Mup5,inactive: -1.47
3,GGCGGAGAACCAUUGAGGATT against 2410141M05Rik,inactive: 0.344
4,CGGCAUGUCCUUCAUCGCUTT against 5430407P10Rik,inactive: -0.0323
5,GGGAAAAUCAAGACCAAUUTT against Rpp30,inactive: -1.08
6,CCAAAUGUGCAGGUUGGAGTT against Exosc3,inactive: -0.481
7,GGCUACGAUCCUACAGUGGTT against Rhebl1,inactive: -0.634
8,CCCAAGAAGUUUUAUUCUGTT against BC050789,inactive: 0.751
9,GGGUGGAAAAUUUCAGUUUTT against 2510010F15Rik,inactive: 0.18
10,GGUUACAGGAUGUUCUUAUTT against Fmo2,inactive: -1.1
11,GGAGGUACAUCAAAUGGUGTT against 9930020N01Rik,inactive: 0.436
12,CCAACAAUGCCGCCAUCAUTT against Gmfg,inactive: 1.5
13,UGAAGCUGUCCCGGACUAATT against LOC435684,inactive: -1.38
14,GGGUUAUACCCAGAAUUUCTT against BB219290,inactive: 1.17
15,GGACUGGAUUUCAUUUAGATT against Fgf9,inactive: 0.325
16,AACUAGCAAUAUGAUGGAGTT against Chic1,inactive: 0.205
17,CCGGGAAACCAACAAAUCATT against Rbmxrt,inactive: -0.911
18,GGACAGAGACAAGAAAAUATT against Ptpn11,inactive: 0.741
19,CCUUAAAUGGAGCUUCAGATT against Insrr,inactive: 1.35
20,GGCCUUCUCCAAGGAGAAGTT against Ptrf,inactive: 0.452
21,GGCCCUGGAAACUAAGCUUTT against Aldob,inactive: -0.807
22,GCGGAGGAUAGAGCAAAUUTT against Upf3b,inactive: 0.302
23,CCUUUGGUAAUCUCCAAAATT against Amph,inactive: 0.404
24,GGACAAGGAAACAAAUUCATT against F8,inactive: 0.77
25,CGGACUAUCUCUAUGAAGATT against Tas2r108,inactive: -0.69
26,GGCUGAACAAGAGAAACCATT against 2700038C09Rik,inactive: -0.606

row,Sequence,z-score
1,CCUUAACUCACUUCAUAAUTT against Vps35,inactive: 0.212
2,GGAAAAGAAGAUGAACAAGTT against Slc24a1,inactive: -0.842
3,GCUUCUGCUUGUUCGCUAGTT against Dub2a,inactive: 0.379
4,CCCAUUAUUAACGCGAAGGTT against Pfn4,inactive: 0.618
5,GGAAGUACCAGGAAGCUGATT against Stmn4,inactive: -0.247
6,GCUCUUGGUCCGUCUUCAGTT against 6030452D12Rik,inactive: -1.22
7,GGAUGACAACAACACUCUGTT against Cacna1s,inactive: -0.229
8,GGACACAAUGACAAAGUCCTT against Wdfy2,inactive: -0.456
9,GGGAAUCAGAUUUGACCUUTT against Mrpl19,inactive: 0.189
10,GGAAAAUAAGGACACUAGUTT against Zfx,inactive: -0.142
11,GGUUCUCAUGAACAGUGAGTT against Tm9sf4,inactive: -1.16
12,GUAAAUCCAAUUCCUCAGCTT against Vax1,inactive: -0.205
13,GGAUAUGGAUCUUAUGAAGTT against 4930558O21Rik,inactive: 1.13
14,CGGACUCAGUCAUCAUUGCTT against Atf7,inactive: 0.755
15,CGCGGAAACUCUCCACUUATT against Psme4,inactive: -0.44
16,GGAGUCAUGUCUGUUGGCATT against 1300019C06Rik,inactive: -0.415
17,CCAUACCUAAAUCUGCAUUTT against 4930565A21Rik,inactive: -0.355
18,GUGGAUUGAGGAUGGAAUCTT against Gng13,inactive: -0.253
19,GCGAUCAGUACUGAAGGAATT against Siglec5,inactive: -1.44
20,CCCAAUGGUUGUACCAAUATT against Zp3r,inactive: 0.759
21,GCUAGUCCGGUACUUCUUGTT against Bckdk,inactive: 1.65
22,GGGAGAAACUAUUUAGUCUTT against Inhbe,inactive: -0.402
23,GCUUAGAAAUCUUAUCCCATT against Hnrpc,inactive: 0.412
24,GGCGAGGAGAAAAGAGUUUTT against Wfdc12,inactive: 0.591
25,GCAUCAAGAUUAAGGUUGUTT against 8030451F13Rik,inactive: 0.548
26,GGCAUUGUCACUGUGUCUGTT against Sphk2,inactive: -1.01

row,Sequence,z-score
1,GGUCAUCGACUUCUCCAAGTT against Grik5,inactive: -0.418
2,GGGUACGUUCAAGUGCUUCTT against Agtpbp1,inactive: -0.398
3,GGACAUUAUUCCAUCUAAGTT against C030036P15Rik,inactive: 0.628
4,GGUACUUUGGAAAGAAGAGTT against Gas41,inactive: -2.13
5,GGGAAUGACGCAUCUUGAATT against 1110001A05Rik,inactive: 0.85
6,GCAGUUAUCGUGAAGUCUGTT against Tcfap4,inactive: 0.82
7,GGUUGUGGACACAUCCAAATT against Aacs,inactive: -0.153
8,GCCUGGCAGAUAUCGCUCUTT against Homez,inactive: 1.61
9,GGAAUCAUGCUGAAAGAGATT against Apom,inactive: 0.74
10,GGAACCUGGUAGGUCAGAATT against Olfr156,inactive: -0.295
11,GCAGAGAGUUUUUAUCUGCTT against 4930579A11Rik,inactive: 0.248
12,GGUGGUUAAACCCAGACUGTT against 2310067E19Rik,inactive: -2.8
13,GGCUGAAGAGCCUAGAGAATT against 1700120K04Rik,inactive: -0.648
14,GCCAUUCUAGAACCUGUAGTT against Zwint,inactive: -0.937
15,GGAAGAGGAGACCACUGAUTT against 2410005H09Rik,inactive: 0.454
16,GGAGGUCCACCUCAUUCUGTT against Gdap1,inactive: 0.0281
17,GGGCUUCAUGGUUCAAACATT against Ppil3,inactive: -0.0468
18,CGUGGUGACUAAGGAUUAUTT against Slc6a20,inactive: 0.216
19,CCAACGCGCACGGCCGCGCTT against 2310037P21Rik,inactive: -0.000569
20,GCCAGUUUGUUACACGCAATT against 4921533L14Rik,inactive: -0.0971
21,GGUUUCUCUCUACGCUAUGTT against Nrp2,inactive: 1.81
22,CCUCGUGUAAGUAUUUAGATT against Mrpl51,inactive: -0.205
23,GCUGGCUGCAUAAACUUGUTT against Lipg,inactive: 1.56
24,GCGUGAAUACCUAAAUGUGTT against Rec8L1,inactive: 0.42
25,CGAUCAUCACCAGAACACCTT against C030030G16Rik,inactive: -0.846
26,CCUGAUCGACUUCAACUUGTT against BC037095,inactive: -0.154

# An excerpt of these results, tab-delimited:
row	Sequence	z-score
2	GGGUACGUUCAAGUGCUUCTT against Agtpbp1	inactive: -0.398
3	GGACAUUAUUCCAUCUAAGTT against C030036P15Rik	inactive: 0.628
4	GGUACUUUGGAAAGAAGAGTT against Gas41	inactive: -2.13
5	GGGAAUGACGCAUCUUGAATT against 1110001A05Rik	inactive: 0.85
6	GCAGUUAUCGUGAAGUCUGTT against Tcfap4	inactive: 0.82
7	GGUUGUGGACACAUCCAAATT against Aacs	inactive: -0.153
8	GCCUGGCAGAUAUCGCUCUTT against Homez	inactive: 1.61
9	GGAAUCAUGCUGAAAGAGATT against Apom	inactive: 0.74
10	GGAACCUGGUAGGUCAGAATT against Olfr156	inactive: -0.295
11	GCAGAGAGUUUUUAUCUGCTT against 4930579A11Rik	inactive: 0.248
12	GGUGGUUAAACCCAGACUGTT against 2310067E19Rik	inactive: -2.8
13	GGCUGAAGAGCCUAGAGAATT against 1700120K04Rik	inactive: -0.648
14	GCCAUUCUAGAACCUGUAGTT against Zwint	inactive: -0.937
15	GGAAGAGGAGACCACUGAUTT against 2410005H09Rik	inactive: 0.454
16	GGAGGUCCACCUCAUUCUGTT against Gdap1	inactive: 0.0281
17	GGGCUUCAUGGUUCAAACATT against Ppil3	inactive: -0.0468
18	CGUGGUGACUAAGGAUUAUTT against Slc6a20	inactive: 0.216
19	CCAACGCGCACGGCCGCGCTT against 2310037P21Rik	inactive: -0.000569
20	GCCAGUUUGUUACACGCAATT against 4921533L14Rik	inactive: -0.0971
21	GGUUUCUCUCUACGCUAUGTT against Nrp2	inactive: 1.81
22	CCUCGUGUAAGUAUUUAGATT against Mrpl51	inactive: -0.205
23	GCUGGCUGCAUAAACUUGUTT against Lipg	inactive: 1.56
24	GCGUGAAUACCUAAAUGUGTT against Rec8L1	inactive: 0.42
25	CGAUCAUCACCAGAACACCTT against C030030G16Rik	inactive: -0.846
26	CCUGAUCGACUUCAACUUGTT against BC037095	inactive: -0.154

# Remaining list, next part:

row,Sequence,z-score
1,GGUAUUCACUGCUUCAUCUTT against Ubap2,inactive: -0.0302
2,GGAACCUACUUGUUACCUUTT against Nalp5,inactive: -1.15
3,GUUUUGGAUUCCUCUGUCATT against Olfr1097,inactive: -0.553
4,GGCUCAAUCCAAGUCUUCATT against Olfr173,inactive: -0.0243
5,CCAGGGUAAAAUAAACGAATT against Ostf1,inactive: -0.0269
6,CCAUUACUCAUCGAGAGUGTT against 2610300B10Rik,inactive: -2.09
7,GGUCACACAGACAUUGACATT against Tnn,inactive: 0.598
8,GGCAGACAUAAGGCUUUCUTT against Olfr1056,inactive: -0.871
9,GGUCAUGGGACAGCAAAUGTT against 2410015B03Rik,inactive: -0.82
10,GGGCAUCUUCCAUCUUCAATT against 4931428L18Rik,inactive: -1.15
11,CCUCAAUCAAAAUGUAAGUTT against Atp6v0a2,inactive: 0.382
12,GGACUCCAUACCACCAAUATT against 6430701C03Rik,inactive: 0.529
13,CGGUACAUCAUUGCUGUCATT against Slc17a8,inactive: -0.486
14,GGUUGGUGAACUUGGAGGUTT against Hspa1a,inactive: 0.0897
15,GCUUCUACUCCAUAUUACGTT against Rbm4,inactive: -0.352
16,GGACGAGAAGCAAACUAUGTT against Pi16,inactive: -0.73
17,GCAAAACAUGAGCUUAAACTT against 1810004F21Rik,inactive: 0.0562
18,GCCCUCCUUAUAGCUUAAUTT against Accn3,inactive: -0.137
19,GGUUCACAGAUGAUACCUUTT against Rab18,inactive: 0.00702
20,GGCCAGAGAAAUCUUGGUATT against Ppp4c,inactive: -1.7
21,GGAAACCUGGGCUUAGUCUTT against Olfr974,inactive: -1.13
22,GCUCACAAUGCUACAUCAATT against BC050210,inactive: 2.63
23,GCUUGAUAGACCAAAAGAUTT against 1600021C16Rik,inactive: -1.29
24,GGGUAUGGAUAUGGAGGUGTT against 4732456N10Rik,inactive: -0.452
25,GGAAGAAUGGAAGAAGAAATT against 5930406N14Rik,inactive: -0.125
